Source: the supplement of paper PMC3334620
The full ranking holds about 33,000 sequences; the median of “E-score (-0.5 to 0.5)” is about -0.0034, and the highest 2% start at about 0.25. Some of the results follow.

Molecular target: T1, Yap3 (UniProt P38749)
T1 sequence: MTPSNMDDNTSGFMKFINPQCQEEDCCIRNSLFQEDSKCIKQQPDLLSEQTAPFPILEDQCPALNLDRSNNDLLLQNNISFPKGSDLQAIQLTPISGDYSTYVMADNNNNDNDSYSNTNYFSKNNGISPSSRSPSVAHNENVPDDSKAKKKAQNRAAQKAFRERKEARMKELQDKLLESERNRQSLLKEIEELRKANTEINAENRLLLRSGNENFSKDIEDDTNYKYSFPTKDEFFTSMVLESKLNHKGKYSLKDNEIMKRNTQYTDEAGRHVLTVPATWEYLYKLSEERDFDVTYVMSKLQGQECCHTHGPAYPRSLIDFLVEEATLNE
Test: PBM E-score (8-mer binding enrichment) (E-score (-0.5 to 0.5)); higher = stronger / more preferred TF binding
Details: protein concentration: 100 nM; construct: GST-full length
Procedure, shortened: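 E-scores (a modified Wilcoxon-Mann-Whitney statistic) were assigned by the Universal PBM Analysis Suite to every ungapped eight-base word pooled with its reverse complement. The input came from universal all-10-mer Agilent arrays made double-stranded by primer extension and probed with GST-tagged yeast transcription factors at about 100-200 nM. Fluorescent anti-GST detected bound protein, and masliner normalised the scans.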

Row | Sequence | PBM E-score
1 | ATCGCAGA | -0.123
2 | GCCAAAGC | -0.18
3 | ATCGTTTG | -0.0122
4 | AATGATAG | 0.172
5 | GACTACAC | 0.0722
6 | GTGAGTGA | -0.0996
7 | ACCCTAAC | 0.154
8 | CCACGGCG | -0.139
9 | TGGCCCAA | -0.182
10 | GCAAGACA | -0.0519
11 | GTTAATAA | 0.223
12 | CTGTCGAC | -0.0938
13 | ACGTCGTA | -0.0916
14 | ATTCTAGA | -0.0715
15 | ACGAGTGG | -0.116
16 | AGTGATTG | 0.0482
17 | CCGGTGGA | -0.133
18 | ACAGTCGC | -0.15
19 | AGCCCATC | -0.189
20 | ACGACACT | 0.0466
21 | CCACTCTC | -0.119
22 | AGGCTCGA | -0.102
23 | CCGACCAA | -0.0619
24 | GGGCAGCA | -0.221
25 | GCATGCAA | 0.0908

Row | Sequence | PBM E-score
26 | ATCTGCGC | -0.0825
27 | ACGCGCTA | 0.0658
28 | TAAAACCA | 0.0776
29 | CGCCGCCC | -0.223
30 | CTGCAGCA | 0.099
31 | CTTCAGTA | -0.157
32 | CAGGCAAG | -0.0287
33 | GAGGAAAA | 0.0645
34 | CGATCATA | 0.13
35 | CAGGTCAA | -0.134
36 | GGACGCCC | -0.27
37 | TGGTGAAA | 0.0494
38 | AACGGTCT | -0.00177
39 | AAACACTG | 0.125
40 | AAGGTAGG | 0.0439
41 | CCAGGTCG | -0.0498
42 | ACGTCTCA | 0.0286
43 | GCACATAC | -0.215
44 | ACGGTTTC | -0.0984
45 | GCCCGATA | -0.0253
46 | CCGCAAAG | 0.0819
47 | CACGTGAG | -0.0452
48 | AGGAGCAA | -0.15
49 | CTAGCTCA | 0.0471
50 | CATGGATC | -0.0545

Row | Sequence | PBM E-score
51 | AGTATGCC | -0.0253
52 | AATTCGAA | 0.0447
53 | GATAGTTA | 0.167
54 | CTGGTCGA | -0.359
55 | CCGTCACG | -0.129
56 | AGCCAATC | -0.0995
57 | GCTATGAC | 0.054
58 | ACGTCAGC | 0.0264
59 | AGGGCCAA | -0.164
60 | GAGTGGAA | 0.0318
61 | AATCCAGG | 0.106
62 | AATGCGAT | 0.00603
63 | ACAGACGA | 0.0461
64 | CGTAGTAA | 0.0845
65 | ACCTAGCA | 0.0768
66 | CCAAAGGC | -0.198
67 | AAGATATG | 0.206
68 | GAAGGCAA | -0.0146
69 | TCCGAGCA | 0.0798
70 | AATAAGAC | 0.0513
71 | CGTCTAGC | -0.011
72 | AAGCCCGA | -0.214
73 | GGATTAAC | -0.0443
74 | CCCGCCTA | -0.0814
75 | ACACAATC | 0.0379

Row | Sequence | PBM E-score
76 | CGAGAATC | 0.0323
77 | ATCGACCA | -0.131
78 | AGGATTGC | -0.153
79 | AAATCCCG | 0.0249
80 | CAGACGGG | -0.235
81 | GACAAATA | 0.299
82 | AGGACTCG | -0.183
83 | CAGGGATC | -0.285
84 | ACCCGCAC | -0.142
85 | TGATTGCA | 0.154
86 | ATGAGCCA | 0.0635
87 | CCCCACGC | -0.246
88 | ATGATATC | 0.0625
89 | CGCCGCTC | -0.168
90 | ATCGGCTC | 0.103
91 | ACTTCGAG | -0.0181
92 | GGTGCCAA | -0.191
93 | ACACTTGG | -0.0144
94 | AGGTAGGG | -0.179
95 | AAACATCA | 0.172
96 | AGACGTTA | -0.0983
97 | GACCTTGA | -0.0719
98 | AGAATTCC | -0.00751
99 | GCTACAAA | 0.119
100 | ATGCAACC | 0.0638

Row | Sequence | PBM E-score
101 | ACGTTGAA | 0.0903
102 | TGTCAGAA | -0.0116
103 | CTGGACCA | -0.00728
104 | AAGAGATG | 0.0281
105 | AAGTTCGG | -0.0937
106 | CATGCACG | -0.162
107 | AAGGATGA | 0.111
108 | CACTATTC | 0.216
109 | ATCACGGA | 0.157
110 | GTCAACTA | 0.24
111 | ACAGCGGT | -0.0239
112 | GGCGTTAA | -0.0643
113 | CCGTGTCG | -0.17
114 | ACAGAGCC | -0.163
115 | CTGGCAGA | -0.0517
116 | ACGAGTCT | -0.132
117 | CACCAATC | 0.0494
118 | CACGTTAG | 0.0507
119 | CTACGTCA | -0.0902
120 | AATGACCC | -0.0581
121 | CATGTCAA | -0.0698
122 | AGTTAACT | 0.117
123 | ATATTGGG | 0.0718
124 | CCAAAGCG | -0.1
125 | GAATCAGC | -0.0767

Row | Sequence | PBM E-score
126 | CAGGCCAA | -0.223
127 | AGAGCGCG | 0.0467
128 | ACAGGGTG | -0.126
129 | CCCTATTA | -0.0452
130 | ATCTCAAC | 0.179
131 | AATGTCGG | -0.0136
132 | ACTCGATA | 0.156
133 | CATCGAAA | -0.0375
134 | TATCATCA | 0.18
135 | CCCCTATA | -0.168
136 | AATACGCG | 0.0798
137 | AAGAAACT | 0.154
138 | CGATCCCA | -0.149
139 | ATCTGTTA | 0.217
140 | AGGGGGCA | -0.114
141 | CCTTATCC | -0.188
142 | ACGAGCAA | -0.0129
143 | CCCCCTGA | -0.367
144 | CAAAATGA | 0.136
145 | GTGGTATA | 0.167
146 | ATTATGGC | 0.171
147 | AACATAAT | 0.334
148 | ACACCACG | -0.0883
149 | CAATGAAC | 0.126
150 | CAATTTTC | 0.196

Row | Sequence | PBM E-score
151 | AGATCCTC | -0.0231
152 | CTATCGTA | 0.104
153 | ACCATGAG | -0.00212
154 | CGTTGGGA | -0.0536
155 | TGAATAAA | 0.106
156 | GACAGTAA | 0.128
157 | ATGAAGGG | -0.199
158 | ATGCGCCC | 0.0511
159 | AGCTGGAG | -0.217
160 | ATCGTTTA | 0.135
161 | AGGGCTTG | -0.0222
162 | CAAGCTAC | -0.0993
163 | CGGGATAG | 0.0402
164 | GCCAGACC | -0.209
165 | CTACGGAG | -0.0141
166 | ACTCGCGA | 0.132
167 | GACGCGCC | -0.119
168 | AGCAGCAG | -0.06
169 | CGACCACA | -0.0771
170 | CGCCGAAG | -0.129
171 | ACCACTGG | 0.0032
172 | ACTGCAAT | 0.106
